{"source": "paper PMC3069973", "about": "“A Fungal Metabolite Asperparaline A Strongly and Selectively Blocks Insect Nicotinic Acetylcholine Receptors: The First Report on the Mode of Action” (PLoS ONE, 2011)", "system": "GABA-gated chloride channel (native, silkworm larval brain neurons, subunits not identified)", "data": [{"compound": "NCCCC(=O)O", "note": "[γ-aminobutyric acid]", "values": [{"measurement": "EC50", "value": "~ 30 µM"}]}]}
